Values from PubChem BioAssay AID1053208 (Peter MacCallum Cancer Centre, 2014).
Aim: 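Genes whose silencing cuts survival of bone tumour cells only with doxorubicin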 (primary screen). Cell system: mouse osteosarcoma cells, early-passage culture from an engineered mouse model of fibroblastic bone tumour. Reagent: siRNA pool against mouse genes, 40 nM. Duration: about 120 h (48 h before drug, then 72 h with drug). Challenge: doxorubicin 100 nM for 72 h, roughly 30-40% inhibitory dose. Detection: 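Viability read as ATP luminescence after 72 h of 100 nM doxorubicin or none, duplicate wells averaged, scaled to non-targeting siRNA, then expressed as robust z-scores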. Direction: viability z-score with doxorubicin: higher = more viable cells under doxorubicin; viability z-score without drug: higher = more viable cells with knock-down alone. Hit rule: 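Called active if knock-down leaves viability unchanged without drug (z within -2 to 2) but lowers it with doxorubicin (z at or under -2)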.
In all, the deposit lists about 17,000 reagents; this is a part drawn at random. 788 of all reagents (4.7%) were called active. 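Calls rest on z-score classes alone; an extra cut-off of viability at most 70% of control was not applied to them.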 Unmarked entries are inactive. Not all columns of the deposit are shown. Reagent sequences are not shown.

Target gene | combined z-score class | viability z-score with doxorubicin | viability z-score without drug
Fam124b | no change with or without drug | -0.11 | 1.18
Il1rn | no change with or without drug | -0.22 | 0.34
Dis3l2 | high cell count without drug only | 1.57 | 2.19
Or8j3 | no change with or without drug | 0.56 | -0.17
Rps7 | low cell count with and without drug | -7.31 | -5.9
Galnt2 | no change with or without drug | -0.67 | -1.18
Cdh26 | no change with or without drug | 0.9 | -0.17
Cd69 | no change with or without drug | 0.9 | 0.84
Akr1a1 | no change with or without drug | -0.79 | 1.01
Ccl25 | no change with or without drug | 0 | -0.17
Prss40 | no change with or without drug | 0.45 | 0.17
Rlig1 | no change with or without drug | -0.56 | 1.18
6720467O09RIK | no change with or without drug | 0.22 | -0.17
Dynll1 | no change with or without drug | 1.12 | -0.17
Nav3 | no change with or without drug | -1.12 | 0.51
Ell | high cell count without drug only | -1.12 | 2.7
Mageb2 | low cell count with doxorubicin only (active) | -2.02 | -1.52
Gzmd | no change with or without drug | 0.67 | 0
Zmpste24 | no change with or without drug | 0.56 | -1.52
Pramel37 | no change with or without drug | 0.56 | 0.51

An excerpt from above, limited to “viability z-score without drug”.
Il1rn: 0.34
Dis3l2: 2.19
